According to PMC11601944:
No constants are given. Whether binding was seen depends on the method and setting. In cells and extracts the contact can be indirect. Some entries that bind do so weakly or less than the wild type.

Amino acid sequences for entries named in this document (tags omitted).
UniProt Q14789: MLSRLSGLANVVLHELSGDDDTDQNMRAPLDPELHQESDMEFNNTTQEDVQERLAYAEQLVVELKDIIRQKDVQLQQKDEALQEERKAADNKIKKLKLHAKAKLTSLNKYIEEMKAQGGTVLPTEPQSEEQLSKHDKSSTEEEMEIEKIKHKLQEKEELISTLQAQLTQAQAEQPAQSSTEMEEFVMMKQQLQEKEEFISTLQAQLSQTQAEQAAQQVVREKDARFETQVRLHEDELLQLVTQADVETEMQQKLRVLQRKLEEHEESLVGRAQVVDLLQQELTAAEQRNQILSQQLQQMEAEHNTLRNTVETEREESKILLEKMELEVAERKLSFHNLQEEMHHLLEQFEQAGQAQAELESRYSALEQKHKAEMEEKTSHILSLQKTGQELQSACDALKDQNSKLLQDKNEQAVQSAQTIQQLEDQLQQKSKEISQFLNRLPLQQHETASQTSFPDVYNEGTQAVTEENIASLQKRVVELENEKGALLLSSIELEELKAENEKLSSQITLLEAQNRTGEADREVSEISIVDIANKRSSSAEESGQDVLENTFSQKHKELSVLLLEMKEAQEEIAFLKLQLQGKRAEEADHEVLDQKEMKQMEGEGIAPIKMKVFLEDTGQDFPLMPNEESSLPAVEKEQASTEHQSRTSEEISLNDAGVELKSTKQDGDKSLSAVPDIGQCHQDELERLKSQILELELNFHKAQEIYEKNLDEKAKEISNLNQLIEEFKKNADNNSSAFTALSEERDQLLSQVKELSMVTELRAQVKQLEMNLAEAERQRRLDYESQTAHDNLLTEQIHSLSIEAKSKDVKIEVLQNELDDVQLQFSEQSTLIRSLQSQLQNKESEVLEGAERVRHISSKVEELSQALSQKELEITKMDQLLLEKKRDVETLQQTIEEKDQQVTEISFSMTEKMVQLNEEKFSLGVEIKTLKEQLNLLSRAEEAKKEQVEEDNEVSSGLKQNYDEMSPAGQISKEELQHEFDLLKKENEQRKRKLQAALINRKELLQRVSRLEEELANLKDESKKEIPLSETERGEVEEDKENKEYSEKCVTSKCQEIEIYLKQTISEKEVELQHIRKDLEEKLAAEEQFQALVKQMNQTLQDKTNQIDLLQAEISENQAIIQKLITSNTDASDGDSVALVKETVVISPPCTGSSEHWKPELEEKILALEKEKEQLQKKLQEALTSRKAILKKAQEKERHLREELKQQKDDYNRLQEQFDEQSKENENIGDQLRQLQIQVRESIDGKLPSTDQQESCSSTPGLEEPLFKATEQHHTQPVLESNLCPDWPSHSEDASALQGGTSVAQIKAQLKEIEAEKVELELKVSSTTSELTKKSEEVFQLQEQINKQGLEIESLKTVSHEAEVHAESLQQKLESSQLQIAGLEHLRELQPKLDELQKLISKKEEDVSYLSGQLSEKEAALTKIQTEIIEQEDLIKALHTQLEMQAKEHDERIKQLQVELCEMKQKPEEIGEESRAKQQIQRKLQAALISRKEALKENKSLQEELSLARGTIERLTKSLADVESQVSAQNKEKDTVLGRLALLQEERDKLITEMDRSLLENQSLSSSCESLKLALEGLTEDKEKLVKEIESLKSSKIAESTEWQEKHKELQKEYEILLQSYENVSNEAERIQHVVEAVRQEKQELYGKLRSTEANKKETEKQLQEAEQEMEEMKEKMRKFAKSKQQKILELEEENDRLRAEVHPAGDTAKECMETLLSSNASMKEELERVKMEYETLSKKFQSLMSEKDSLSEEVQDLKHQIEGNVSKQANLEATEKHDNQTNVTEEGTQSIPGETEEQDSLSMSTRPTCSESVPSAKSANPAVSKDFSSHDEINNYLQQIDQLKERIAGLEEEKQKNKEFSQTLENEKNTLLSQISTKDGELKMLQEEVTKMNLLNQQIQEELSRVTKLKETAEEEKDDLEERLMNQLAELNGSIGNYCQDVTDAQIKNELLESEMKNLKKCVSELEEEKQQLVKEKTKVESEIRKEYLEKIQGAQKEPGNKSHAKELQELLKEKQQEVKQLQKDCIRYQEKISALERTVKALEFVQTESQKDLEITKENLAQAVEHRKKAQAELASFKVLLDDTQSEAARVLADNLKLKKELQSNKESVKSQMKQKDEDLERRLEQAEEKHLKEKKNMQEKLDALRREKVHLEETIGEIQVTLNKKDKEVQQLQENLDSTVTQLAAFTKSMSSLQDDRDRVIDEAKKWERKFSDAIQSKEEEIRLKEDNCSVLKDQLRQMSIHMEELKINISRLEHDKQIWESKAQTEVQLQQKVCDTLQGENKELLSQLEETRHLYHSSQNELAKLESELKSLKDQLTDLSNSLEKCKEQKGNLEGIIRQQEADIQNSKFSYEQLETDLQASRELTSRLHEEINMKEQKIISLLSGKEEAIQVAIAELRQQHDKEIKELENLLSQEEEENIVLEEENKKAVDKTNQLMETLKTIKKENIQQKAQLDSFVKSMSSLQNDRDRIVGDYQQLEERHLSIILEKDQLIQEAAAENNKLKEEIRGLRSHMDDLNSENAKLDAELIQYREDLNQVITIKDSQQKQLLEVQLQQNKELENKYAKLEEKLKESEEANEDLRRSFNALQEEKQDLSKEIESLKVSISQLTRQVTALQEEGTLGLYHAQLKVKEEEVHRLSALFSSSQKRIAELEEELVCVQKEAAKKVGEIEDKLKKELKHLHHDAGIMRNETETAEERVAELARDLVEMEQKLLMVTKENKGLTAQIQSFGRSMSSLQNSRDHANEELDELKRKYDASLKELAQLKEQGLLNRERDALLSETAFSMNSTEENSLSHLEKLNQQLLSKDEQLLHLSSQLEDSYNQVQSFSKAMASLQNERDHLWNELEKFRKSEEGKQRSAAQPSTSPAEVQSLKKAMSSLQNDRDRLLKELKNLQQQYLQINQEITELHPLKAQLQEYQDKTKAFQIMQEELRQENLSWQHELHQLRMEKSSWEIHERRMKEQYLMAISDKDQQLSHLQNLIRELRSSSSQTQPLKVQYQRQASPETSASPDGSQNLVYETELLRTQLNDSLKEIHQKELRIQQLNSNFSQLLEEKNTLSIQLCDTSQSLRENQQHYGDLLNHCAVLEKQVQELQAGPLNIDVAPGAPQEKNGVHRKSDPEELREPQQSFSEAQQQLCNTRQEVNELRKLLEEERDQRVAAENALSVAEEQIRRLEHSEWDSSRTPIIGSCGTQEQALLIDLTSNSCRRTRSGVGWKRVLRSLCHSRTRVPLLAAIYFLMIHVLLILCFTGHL

T1: Gal3-O-sulfotransferase 2 (human (endogenous in LSG and HSG cells)) (UniProt Q9H3Q3)
T1 sequence: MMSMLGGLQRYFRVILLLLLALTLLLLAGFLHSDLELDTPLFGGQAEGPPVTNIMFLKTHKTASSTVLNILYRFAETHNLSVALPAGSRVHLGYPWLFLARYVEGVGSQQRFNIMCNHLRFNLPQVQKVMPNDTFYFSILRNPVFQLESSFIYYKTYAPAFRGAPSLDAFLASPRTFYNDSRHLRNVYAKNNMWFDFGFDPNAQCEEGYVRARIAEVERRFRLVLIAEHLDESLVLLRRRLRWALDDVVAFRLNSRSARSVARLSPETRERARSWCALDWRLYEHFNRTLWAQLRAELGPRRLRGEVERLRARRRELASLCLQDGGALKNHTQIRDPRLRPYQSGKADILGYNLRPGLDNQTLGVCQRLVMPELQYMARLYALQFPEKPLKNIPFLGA

T2: Gal3-O-sulfotransferase 4 (human (endogenous in LSG and HSG cells)) (UniProt Q96RP7)
T2 sequence: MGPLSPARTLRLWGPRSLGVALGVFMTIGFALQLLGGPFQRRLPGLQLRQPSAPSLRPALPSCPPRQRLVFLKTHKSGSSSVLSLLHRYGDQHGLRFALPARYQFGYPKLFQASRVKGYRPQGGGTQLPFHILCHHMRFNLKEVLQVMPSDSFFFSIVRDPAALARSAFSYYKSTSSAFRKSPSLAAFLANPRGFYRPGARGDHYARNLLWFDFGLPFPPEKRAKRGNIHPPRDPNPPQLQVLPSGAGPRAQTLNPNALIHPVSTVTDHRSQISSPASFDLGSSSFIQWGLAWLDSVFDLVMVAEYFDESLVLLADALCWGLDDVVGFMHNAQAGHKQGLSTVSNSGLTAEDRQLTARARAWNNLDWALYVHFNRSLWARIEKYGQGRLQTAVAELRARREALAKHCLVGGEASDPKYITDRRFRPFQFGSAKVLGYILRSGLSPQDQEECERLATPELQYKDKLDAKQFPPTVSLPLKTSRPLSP

T3: C2GnT-2 (human (endogenous in LSG and HSG cells)) (UniProt O95395)
T3 sequence: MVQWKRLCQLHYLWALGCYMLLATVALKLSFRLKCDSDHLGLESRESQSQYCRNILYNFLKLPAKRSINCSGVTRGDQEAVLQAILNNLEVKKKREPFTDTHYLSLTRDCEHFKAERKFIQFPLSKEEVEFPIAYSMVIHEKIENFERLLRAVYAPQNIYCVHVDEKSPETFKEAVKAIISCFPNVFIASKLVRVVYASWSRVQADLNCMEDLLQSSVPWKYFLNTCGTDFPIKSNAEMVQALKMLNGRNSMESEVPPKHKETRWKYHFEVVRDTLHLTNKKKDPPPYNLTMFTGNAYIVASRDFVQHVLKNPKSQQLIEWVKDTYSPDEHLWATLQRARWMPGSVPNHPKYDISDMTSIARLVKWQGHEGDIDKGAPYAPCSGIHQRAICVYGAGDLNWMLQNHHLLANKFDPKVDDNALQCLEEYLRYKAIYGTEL

T4: GM130 (human (endogenous in LSG and HSG cells)) (UniProt Q08379)
T4 sequence: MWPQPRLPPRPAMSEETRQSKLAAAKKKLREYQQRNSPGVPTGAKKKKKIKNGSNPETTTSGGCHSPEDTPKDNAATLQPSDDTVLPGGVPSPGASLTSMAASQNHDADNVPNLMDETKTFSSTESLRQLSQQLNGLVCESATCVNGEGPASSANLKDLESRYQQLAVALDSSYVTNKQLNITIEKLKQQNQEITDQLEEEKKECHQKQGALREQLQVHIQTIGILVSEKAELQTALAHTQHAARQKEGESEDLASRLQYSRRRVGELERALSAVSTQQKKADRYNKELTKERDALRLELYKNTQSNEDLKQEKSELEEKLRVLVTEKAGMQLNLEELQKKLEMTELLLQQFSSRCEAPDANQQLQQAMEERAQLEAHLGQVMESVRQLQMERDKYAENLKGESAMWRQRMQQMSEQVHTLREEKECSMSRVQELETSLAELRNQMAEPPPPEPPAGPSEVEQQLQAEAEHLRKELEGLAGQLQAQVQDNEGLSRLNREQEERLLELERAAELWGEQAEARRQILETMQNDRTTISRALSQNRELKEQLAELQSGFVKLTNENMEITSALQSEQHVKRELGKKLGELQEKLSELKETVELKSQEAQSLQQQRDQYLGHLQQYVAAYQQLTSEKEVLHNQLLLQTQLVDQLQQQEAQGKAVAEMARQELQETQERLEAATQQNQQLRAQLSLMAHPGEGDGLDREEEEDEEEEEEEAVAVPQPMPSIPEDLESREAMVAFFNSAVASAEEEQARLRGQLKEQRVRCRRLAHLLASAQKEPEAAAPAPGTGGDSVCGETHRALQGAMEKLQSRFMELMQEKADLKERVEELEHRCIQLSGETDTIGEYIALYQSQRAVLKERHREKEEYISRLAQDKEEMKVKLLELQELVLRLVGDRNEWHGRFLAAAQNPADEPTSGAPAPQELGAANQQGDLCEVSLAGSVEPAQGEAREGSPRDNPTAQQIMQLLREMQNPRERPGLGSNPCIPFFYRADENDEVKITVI


Columns and labels:
[1] = molecular target: T1, Gal3-O-sulfotransferase 2 (human (endogenous in LSG and HSG cells)); experiment: co-IP; protein extracts of HSG cells (20 mM Tris-HCl pH 7.4, 150 mM NaCl, 1% Igepal, protease inhibitors); 500 ug total protein per assay; antibody-coated Protein-A/G-Sepharose beads; Western blot; control IgG anti-integrin alpha6
[2] = molecular target: T2, Gal3-O-sulfotransferase 4 (human (endogenous in LSG and HSG cells)); experiment: as above
[3] = molecular target: T3, C2GnT-2 (human (endogenous in LSG and HSG cells)); experiment: as above
[4] = molecular target: T1, Gal3-O-sulfotransferase 2 (human (endogenous in LSG and HSG cells)); experiment: co-IP; pooled protein extracts of LSG from patients with SjD or controls (20 mM Tris-HCl pH 7.4, 150 mM NaCl, 1% Igepal, protease inhibitors); 500 ug total protein per assay; antibody-coated Protein-A/G-Sepharose beads; Western blot; control IgG anti-integrin alpha6
[5] = molecular target: T2, Gal3-O-sulfotransferase 4 (human (endogenous in LSG and HSG cells)); experiment: as above
[6] = molecular target: T3, C2GnT-2 (human (endogenous in LSG and HSG cells)); experiment: as above
[7] = molecular target: Giantin (human (endogenous in LSG and HSG cells)) (UniProt Q14789); experiment: co-IP; protein extracts of HSG cells (20 mM Tris-HCl pH 7.4, 150 mM NaCl, 1% Igepal, protease inhibitors); 500 ug total protein per assay; antibody-coated Protein-A/G-Sepharose beads; Western blot; control IgG anti-integrin alpha6
[8] = molecular target: Giantin (human (endogenous in LSG and HSG cells)) (UniProt Q14789); experiment: co-IP; pooled protein extracts of LSG from patients with SjD or controls (20 mM Tris-HCl pH 7.4, 150 mM NaCl, 1% Igepal, protease inhibitors); 500 ug total protein per assay; antibody-coated Protein-A/G-Sepharose beads; Western blot; control IgG anti-integrin alpha6
[9] = molecular target: T4, GM130 (human (endogenous in LSG and HSG cells)); experiment: co-IP; protein extracts of HSG cells (20 mM Tris-HCl pH 7.4, 150 mM NaCl, 1% Igepal, protease inhibitors); 500 ug total protein per assay; antibody-coated Protein-A/G-Sepharose beads; Western blot; control IgG anti-integrin alpha6

Molecule | binding [1] | binding [4] | binding [7] | other results
Giantin (from UniProt Q14789 1-3259) | binds | binds | – | binding [2]: binds; binding [3]: binds; binding [5]: binds; binding [6]: binds
Gal3-O-sulfotransferase 4 (enzyme, UniProt Q96RP7 1-486) MGPLSPARTLRLWGPRSLGVALGVFMTIGFALQLLGGPFQRRLPGLQLRQPSAPSLRPALPSCPPRQRLVFLKTHKSGSSSVLSLLHRYGDQHGLRFALPARYQFGYPKLFQASRVKGYRPQGGGTQLPFHILCHHMRFNLKEVLQVMPSDSFFFSIVRDPAALARSAFSYYKSTSSAFRKSPSLAAFLANPRGFYRPGARGDHYARNLLWFDFGLPFPPEKRAKRGNIHPPRDPNPPQLQVLPSGAGPRAQTLNPNALIHPVSTVTDHRSQISSPASFDLGSSSFIQWGLAWLDSVFDLVMVAEYFDESLVLLADALCWGLDDVVGFMHNAQAGHKQGLSTVSNSGLTAEDRQLTARARAWNNLDWALYVHFNRSLWARIEKYGQGRLQTAVAELRARREALAKHCLVGGEASDPKYITDRRFRPFQFGSAKVLGYILRSGLSPQDQEECERLATPELQYKDKLDAKQFPPTVSLPLKTSRPLSP | – | – | binds | binding [8]: binds
GNT-1 (enzyme, UniProt P26572 1-445) MLKKQSAGLVLWGAILFVAWNALLLLFFWTRPAPGRPPSVSALDGDPASLTREVIRLAQDAEVELERQRGLLQQIGDALSSQRGRVPTAAPPAQPRVPVTPAPAVIPILVIACDRSTVRRCLDKLLHYRPSAELFPIIVSQDCGHEETAQAIASYGSAVTHIRQPDLSSIAVPPDHRKFQGYYKIARHYRWALGQVFRQFRFPAAVVVEDDLEVAPDFFEYFRATYPLLKADPSLWCVSAWNDNGKEQMVDASRPELLYRTDFFPGLGWLLLAELWAELEPKWPKAFWDDWMRRPEQRQGRACIRPEISRTMTFGRKGVSHGQFFDQHLKFIKLNQQFVHFTQLDLSYLQREAYDRDFLARVYGAPQLQVEKVRTNDRKELGEVRVQYTGRDSFKAFAKALGVMDDLKSGVPRAGYRGIVTFQFRGRRVHLAPPLTWEGYDPSWN | – | – | binds | binding [9]: binds
GM130 (protein, UniProt Q08379 1-1002) MWPQPRLPPRPAMSEETRQSKLAAAKKKLREYQQRNSPGVPTGAKKKKKIKNGSNPETTTSGGCHSPEDTPKDNAATLQPSDDTVLPGGVPSPGASLTSMAASQNHDADNVPNLMDETKTFSSTESLRQLSQQLNGLVCESATCVNGEGPASSANLKDLESRYQQLAVALDSSYVTNKQLNITIEKLKQQNQEITDQLEEEKKECHQKQGALREQLQVHIQTIGILVSEKAELQTALAHTQHAARQKEGESEDLASRLQYSRRRVGELERALSAVSTQQKKADRYNKELTKERDALRLELYKNTQSNEDLKQEKSELEEKLRVLVTEKAGMQLNLEELQKKLEMTELLLQQFSSRCEAPDANQQLQQAMEERAQLEAHLGQVMESVRQLQMERDKYAENLKGESAMWRQRMQQMSEQVHTLREEKECSMSRVQELETSLAELRNQMAEPPPPEPPAGPSEVEQQLQAEAEHLRKELEGLAGQLQAQVQDNEGLSRLNREQEERLLELERAAELWGEQAEARRQILETMQNDRTTISRALSQNRELKEQLAELQSGFVKLTNENMEITSALQSEQHVKRELGKKLGELQEKLSELKETVELKSQEAQSLQQQRDQYLGHLQQYVAAYQQLTSEKEVLHNQLLLQTQLVDQLQQQEAQGKAVAEMARQELQETQERLEAATQQNQQLRAQLSLMAHPGEGDGLDREEEEDEEEEEEEAVAVPQPMPSIPEDLESREAMVAFFNSAVASAEEEQARLRGQLKEQRVRCRRLAHLLASAQKEPEAAAPAPGTGGDSVCGETHRALQGAMEKLQSRFMELMQEKADLKERVEELEHRCIQLSGETDTIGEYIALYQSQRAVLKERHREKEEYISRLAQDKEEMKVKLLELQELVLRLVGDRNEWHGRFLAAAQNPADEPTSGAPAPQELGAANQQGDLCEVSLAGSVEPAQGEAREGSPRDNPTAQQIMQLLREMQNPRERPGLGSNPCIPFFYRADENDEVKITVI | no binding | no binding | – | –
